# Data as given in US12187726B1, “Imidazo[1,5-a]pyrido[4,3-e]pyrazines as CK2 inhibitors” (KING FAISAL UNIVERSITY, priority 2024, dated 2025).
# What was measured:
# Type in all cases: cell-based
# [1] = test system: MCF7 (breast) cancer cells; test: MTT in vitro cytotoxic activity assay, MCF7; details: Homo sapiens, cells exposed for 96 hours, 50% inhibition of cell proliferation, read-out: Cytotoxicity activity IC50, MCF7 (breast)
# Experimental: (§1) Compounds 1-16 were screened for their in vitro cytotoxic activity utilizing a 3-(4,5-dimethyl-thiazol-2-yl)-2,5-diphenyltetrazolium bromide (MTT) assay against selected cancer human cell lines consisting of PC3 (prostate), HCT116 (colon), A375 (melanoma), H1299 (lung), MIAPaCa-2 (pancreas), HL60 (leukemia), MCF7 (breast), MDA-MB-231 (breast) (T. Mosmann, J. Immunol. Meth., 1983, 65, 55-63). The cells were cultured at 37° C. in RMPI1640 medium supplemented with 10% fetal bovine serum, 50 IU/mL penicillin, and 50 μg/mL streptomycin in a 5% CO2 incubator. All cells were sub-cultured 3 times/week by trypsinisation. Viable cells were seeded and allowed to adhere for 12 hours before a test drug was added in 96-well plates at an initial density of 1.0×10^5 cells/mL. Tumor cell lines were separately exposed to various concentrations of the tested compounds followed by incubation at a temperature of 37° C. during 96 hours inside a medium of fresh RMPI 1640. Cells were subsequently incubated at 37° C. using MTT at 0.5 mg/mL during 4 hours. After removal of supernatant, formazan crystals were dissolved in isopropanol and the optical density was measured at 570 nm. CX-4945 was used as a positive control.
# [2] = test system: HL60 (leukemia) cancer cells; test: MTT in vitro cytotoxic activity assay, HL60; details: Homo sapiens, HL-60; cells exposed for 96 hours; 50% inhibition of cell proliferation; read-out: Cytotoxicity activity IC50, HL60 (leukemia)
# Experimental: as §1
# [3] = test system: HCT116 (colon) cancer cells; test: MTT in vitro cytotoxic activity assay, HCT116; details: Homo sapiens, HCT-116; cells exposed for 96 hours; 50% inhibition of cell proliferation; read-out: Cytotoxicity activity IC50, HCT116 (colon)
# Experimental: as §1
# [4] = test system: MIAPaCa-2 (pancreas) cancer cells; test: MTT in vitro cytotoxic activity assay, MIAPaCa-2; details: Homo sapiens, MIA PaCa-2; cells exposed for 96 hours; 50% inhibition of cell proliferation; read-out: Cytotoxicity activity IC50, MIAPaCa-2 (pancreas)
# Experimental: as §1
# [5] = test system: A375 (melanoma) cancer cells; test: MTT in vitro cytotoxic activity assay, A375; details: Homo sapiens, A-375; cells exposed for 96 hours; 50% inhibition of cell proliferation; read-out: Cytotoxicity activity IC50, A375 (melanoma)
# Experimental: as §1
# [6] = test system: H1299 (lung) cancer cells; test: MTT in vitro cytotoxic activity assay, H1299; details: Homo sapiens, NCI-H1299; cells exposed for 96 hours; 50% inhibition of cell proliferation; read-out: Cytotoxicity activity IC50, H1299 (lung)
# Experimental: as §1
# [7] = test system: PC3 (prostate) cancer cells; test: MTT in vitro cytotoxic activity assay, PC3; details: Homo sapiens; cells exposed for 96 hours; 50% inhibition of cell proliferation; read-out: Cytotoxicity activity IC50, PC3 (prostate)
# Experimental: as §1
# [8] = test system: MDA-MB-231 (breast) cancer cells; test: MTT in vitro cytotoxic activity assay, MDA-MB-231; details: Homo sapiens, cells exposed for 96 hours, 50% inhibition of cell proliferation, read-out: Cytotoxicity activity IC50, MDA-MB-231 (breast)
# Experimental: as §1
structure (smiles),measurement,setting,value
"O=C(O)c1ccc2c(c1)nc(Nc1cccc(Cl)c1)c1ccncc12 [CX-4945, reference compound]",IC50,[1],9100 nM
same,IC50,[2],3700 nM
same,IC50,[3],2300 nM
same,IC50,[4],1000 nM
same,IC50,[5],4100 nM
same,IC50,[6],2300 nM
same,IC50,[7],2000 nM
same,IC50,[8],6200 nM
